Results deposited as PubChem BioAssay AID504774 (Drosophila RNAi Screening Center, 2011).
Aim: 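Fly genes whose loss alters survival after alkylation damage to DNA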 (primary screen). Cell system: Drosophila Kc167 cells. Knock-down reagent: long dsRNA against Drosophila genes, about 0.25 µg dsRNA per well. Timing: about 6 days: 3 days knock-down, then 3 days with or without MMS. Treatment: methyl methanesulphonate 0.004% (w/v) for 3 days after knock-down. Read-out: 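Viability in wells given MMS, read as ATP luminescence, normalised by quantiles plate by plate and averaged across replicates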. Reading the numbers: mean viability with MMS and viability with MMS: higher = more surviving cells after MMS.
The screen tested about 23,000 reagents; below is a random part of those with a known target gene and a result. 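Values are quantile-normalised luminescence on an arbitrary scale; higher means more cells surviving MMS.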 Reagents against one gene are numbered here.

| gene | reagent no. | mean viability with MMS | viability with MMS, replicate 1 | viability with MMS, replicate 2 |
| --- | --- | --- | --- | --- |
| SdhBL (GeneID 32887) | 1 | 3.61e6 | 3.99e6 | 4.16e6 |
| CG6569 (GeneID 42573) | 1 | 3.44e6 | 3.90e6 | 3.92e6 |
| CkIIalpha-i1 (GeneID 39721) | 1 | 3.86e6 | 4.27e6 | 4.32e6 |
| Lgr1 (GeneID 42133) | 1 | 3.53e6 | 4.11e6 | 3.90e6 |
| CG14194 (GeneID 32908) | 1 | 3.52e6 | 3.98e6 | 4.01e6 |
| beat-IV (GeneID 42778) | 1 | 3.63e6 | 4.06e6 | 4.15e6 |
| beat-IV (GeneID 42778) | 2 | 3.35e6 | 3.79e6 | 3.71e6 |
| CG15546 (GeneID 43659) | 1 | 3.42e6 | 3.87e6 | 3.81e6 |
| CG15546 (GeneID 43659) | 2 | 3.46e6 | 4.07e6 | 3.83e6 |
| CG30091 (GeneID 246449) | 1 | 3.44e6 | 3.97e6 | 3.88e6 |
| CG30151 (GeneID 246484) | 1 | 3.43e6 | 3.92e6 | 3.87e6 |
| CG7920 (GeneID 43562) | 1 | 3.61e6 | 3.99e6 | 4.19e6 |
| CG7920 (GeneID 43562) | 2 | 3.53e6 | 3.97e6 | 4.07e6 |
| nac (GeneID 40981) | 1 | 3.44e6 | 3.88e6 | 3.95e6 |
| CG31678 (GeneID 35327) | 1 | 3.35e6 | 3.78e6 | 3.67e6 |
| CG31678 (GeneID 35327) | 2 | 3.70e6 | 4.18e6 | 4.16e6 |
| CG7565 (GeneID 38893) | 1 | 3.39e6 | 3.84e6 | 3.90e6 |
| CCKLR-17D1 (GeneID 32860) | 1 | 3.57e6 | 4.07e6 | 4.01e6 |
| CCKLR-17D1 (GeneID 32860) | 2 | 3.70e6 | 4.20e6 | 4.11e6 |
| CCKLR-17D1 (GeneID 32860) | 3 | 3.53e6 | 4.04e6 | 3.98e6 |
| CG42566 (GeneID 8674120) | 1 | 3.54e6 | 4.06e6 | 3.95e6 |
| Not10 (GeneID 41552) | 1 | 3.58e6 | 4.04e6 | 4.12e6 |
| CG31157 (GeneID 318608) | 1 | 3.39e6 | 3.87e6 | 3.89e6 |
| Gar1 (GeneID 37397) | 1 | 3.36e6 | 3.82e6 | 3.73e6 |
| Eh (GeneID 42101) | 1 | 3.65e6 | 4.11e6 | 4.19e6 |
| nej (GeneID 43856) | 1 | 3.23e6 | 3.92e6 | 3.59e6 |
| nej (GeneID 43856) | 2 | 2.57e6 | 2.83e6 | 3.14e6 |
| CG31036 (GeneID 43539) | 1 | 3.50e6 | 3.87e6 | 4.04e6 |
| CG31036 (GeneID 43539) | 2 | 3.53e6 | 4.01e6 | 3.99e6 |
| lic (GeneID 32257) | 1 | 3.61e6 | 4.38e6 | 3.80e6 |
| Jheh1 (GeneID 251984) | 1 | 3.47e6 | 3.98e6 | 3.88e6 |

6 of these entries, reformatted:
{"gene":"Eh (GeneID 42101)","reagent no.":1,"mean viability with MMS":3.65e6,"viability with MMS, replicate 1":4.11e6,"viability with MMS, replicate 2":4.19e6}
{"gene":"nej (GeneID 43856)","reagent no.":1,"mean viability with MMS":3.23e6,"viability with MMS, replicate 1":3.92e6,"viability with MMS, replicate 2":3.59e6}
{"gene":"nej (GeneID 43856)","reagent no.":2,"mean viability with MMS":2.57e6,"viability with MMS, replicate 1":2.83e6,"viability with MMS, replicate 2":3.14e6}
{"gene":"CG31036 (GeneID 43539)","reagent no.":1,"mean viability with MMS":3.50e6,"viability with MMS, replicate 1":3.87e6,"viability with MMS, replicate 2":4.04e6}
{"gene":"CG31036 (GeneID 43539)","reagent no.":2,"mean viability with MMS":3.53e6,"viability with MMS, replicate 1":4.01e6,"viability with MMS, replicate 2":3.99e6}
{"gene":"lic (GeneID 32257)","reagent no.":1,"mean viability with MMS":3.61e6,"viability with MMS, replicate 1":4.38e6,"viability with MMS, replicate 2":3.80e6}

Continued.
| gene | reagent no. | mean viability with MMS | viability with MMS, replicate 1 | viability with MMS, replicate 2 |
| --- | --- | --- | --- | --- |
| CG14543 (GeneID 43167) | 1 | 3.27e6 | 3.67e6 | 3.71e6 |
| CG4951 (GeneID 43355) | 1 | 3.56e6 | 4.08e6 | 4.00e6 |
| Tmtc2 (GeneID 33276) | 1 | 3.60e6 | 4.02e6 | 4.17e6 |
| CG11537 (GeneID 38373) | 1 | 3.53e6 | 4.01e6 | 4.00e6 |
| CG8299 (GeneID 36751) | 1 | 3.47e6 | 3.98e6 | 3.87e6 |
| CG13331 (GeneID 36503) | 1 | 3.76e6 | 4.11e6 | 4.09e6 |
| IFT52 (GeneID 33917) | 1 | 3.62e6 | 4.14e6 | 4.03e6 |
| Elk (GeneID 37047) | 1 | 3.46e6 | 3.89e6 | 3.95e6 |
| CG30015 (GeneID 36147) | 1 | 3.55e6 | 4.01e6 | 4.03e6 |
| CG30015 (GeneID 36147) | 2 | 3.57e6 | 4.01e6 | 4.10e6 |
| CG30015 (GeneID 36147) | 3 | 3.46e6 | 3.87e6 | 3.99e6 |
| roq (GeneID 39818) | 1 | 3.90e6 | 4.45e6 | 4.26e6 |
| UK114 (GeneID 34897) | 1 | 3.71e6 | 4.21e6 | 4.12e6 |
| Lcp4 (GeneID 35820) | 1 | 3.53e6 | 3.93e6 | 4.08e6 |
| CR31427 (GeneID 43464) | 1 | 3.53e6 | 4.04e6 | 3.97e6 |
| ppk27 (GeneID 38440) | 1 | 3.60e6 | 4.01e6 | 4.12e6 |
| ppk27 (GeneID 38440) | 2 | 3.46e6 | 3.83e6 | 4.05e6 |
| CG16711 (GeneID 39135) | 1 | 3.70e6 | 4.11e6 | 4.21e6 |
| Gmppa (GeneID 36730) | 1 | 3.40e6 | 3.93e6 | 3.85e6 |
| Ir93a (GeneID 42471) | 1 | 3.48e6 | 3.86e6 | 4.03e6 |
| Ir93a (GeneID 42471) | 2 | 3.53e6 | 3.87e6 | 4.13e6 |
| CG18537 (GeneID 37094) | 1 | 3.65e6 | 4.08e6 | 4.17e6 |
| CtIP (GeneID 40262) | 1 | 3.58e6 | 4.14e6 | 3.97e6 |
| CG32814 (GeneID 318223) | 1 | 3.45e6 | 3.94e6 | 3.91e6 |
| CG8072 (GeneID 39181) | 1 | 3.57e6 | 4.00e6 | 4.08e6 |
| mei-41 (GeneID 32608) | 1 | 3.39e6 | 3.83e6 | 3.81e6 |
| Taf8 (GeneID 32792) | 1 | 3.44e6 | 3.87e6 | 3.92e6 |
| Sr-CIV (GeneID 33576) | 1 | 3.62e6 | 4.18e6 | 4.01e6 |
| Neos (GeneID 38795) | 1 | 3.36e6 | 3.81e6 | 3.85e6 |
| Mnr (GeneID 33098) | 1 | 3.45e6 | 3.88e6 | 3.96e6 |
| Mnr (GeneID 33098) | 2 | 3.61e6 | 3.93e6 | 4.22e6 |
| Mnr (GeneID 33098) | 3 | 3.42e6 | 3.98e6 | 3.86e6 |
| CG14983 (GeneID 38466) | 1 | 3.65e6 | 4.12e6 | 4.11e6 |
| eIF4G1 (GeneID 43839) | 1 | 2.99e6 | 3.69e6 | 3.62e6 |
| yrt (GeneID 41656) | 1 | 3.37e6 | 3.91e6 | 3.69e6 |
| Uvrag (GeneID 34735) | 1 | 3.50e6 | 3.74e6 | 4.18e6 |
| pan (GeneID 43769) | 1 | 3.34e6 | 3.79e6 | 3.82e6 |
| pan (GeneID 43769) | 2 | 3.51e6 | 4.07e6 | 3.90e6 |
